Laboratory results from article doi:10.1101/2020.07.25.220095.
Results are given in words; binding and its absence hold for the method and conditions named. In cells and extracts the contact can be indirect. Some binding calls cover weakened binding; strength is not graded here. Sequences can lack the tags named with a protein.

Legend:
Experiment in all cases: pull-down
[1] = target: T1, Nsr1 (TAP-tagged version) (S. cerevisiae (TAP-tagged yeast strain)) (UniProt P27476)
T1 sequence: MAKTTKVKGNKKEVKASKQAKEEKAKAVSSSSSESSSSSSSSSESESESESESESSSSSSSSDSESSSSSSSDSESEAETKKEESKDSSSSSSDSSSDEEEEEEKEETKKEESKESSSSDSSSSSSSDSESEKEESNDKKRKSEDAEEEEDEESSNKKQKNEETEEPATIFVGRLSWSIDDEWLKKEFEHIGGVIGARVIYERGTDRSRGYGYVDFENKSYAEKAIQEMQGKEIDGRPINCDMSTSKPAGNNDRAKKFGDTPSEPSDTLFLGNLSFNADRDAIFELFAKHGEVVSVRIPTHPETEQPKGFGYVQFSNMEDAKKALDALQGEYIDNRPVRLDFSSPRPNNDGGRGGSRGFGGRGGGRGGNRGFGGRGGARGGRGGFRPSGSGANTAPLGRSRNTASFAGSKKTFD

[2] = target: T2, Vts1 (TAP-tagged version) (S. cerevisiae (TAP-tagged yeast strain)) (UniProt Q08831)
T2 sequence: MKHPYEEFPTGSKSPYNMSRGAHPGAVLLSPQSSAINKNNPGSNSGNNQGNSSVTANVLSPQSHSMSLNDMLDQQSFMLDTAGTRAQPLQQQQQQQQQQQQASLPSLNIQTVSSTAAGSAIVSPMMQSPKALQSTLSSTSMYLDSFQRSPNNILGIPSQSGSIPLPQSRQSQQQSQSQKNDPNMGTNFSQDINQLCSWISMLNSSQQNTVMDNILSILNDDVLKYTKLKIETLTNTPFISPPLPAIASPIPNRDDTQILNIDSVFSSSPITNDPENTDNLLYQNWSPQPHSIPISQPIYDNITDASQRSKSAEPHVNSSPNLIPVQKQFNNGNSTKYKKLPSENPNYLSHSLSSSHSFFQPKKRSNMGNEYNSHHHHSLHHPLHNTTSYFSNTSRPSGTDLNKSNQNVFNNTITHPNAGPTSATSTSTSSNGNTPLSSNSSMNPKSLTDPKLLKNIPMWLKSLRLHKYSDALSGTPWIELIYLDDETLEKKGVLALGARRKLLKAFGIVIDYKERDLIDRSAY

[3] = target: T3, Pub1 (TAP-tagged version) (S. cerevisiae (TAP-tagged yeast strain)) (UniProt P32588)
T3 sequence: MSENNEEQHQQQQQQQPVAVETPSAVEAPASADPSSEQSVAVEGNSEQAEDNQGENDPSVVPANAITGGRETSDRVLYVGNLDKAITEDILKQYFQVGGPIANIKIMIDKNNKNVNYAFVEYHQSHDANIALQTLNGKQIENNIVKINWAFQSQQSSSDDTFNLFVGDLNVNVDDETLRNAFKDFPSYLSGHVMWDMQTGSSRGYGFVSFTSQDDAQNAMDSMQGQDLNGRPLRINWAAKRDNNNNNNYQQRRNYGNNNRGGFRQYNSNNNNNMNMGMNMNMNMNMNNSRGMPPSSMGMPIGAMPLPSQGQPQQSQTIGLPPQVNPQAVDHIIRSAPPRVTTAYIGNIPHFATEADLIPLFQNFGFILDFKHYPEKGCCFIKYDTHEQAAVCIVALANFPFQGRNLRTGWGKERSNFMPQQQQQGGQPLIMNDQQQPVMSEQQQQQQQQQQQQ

[4] = target: T4, Puf3-TAP (S. cerevisiae (TAP-tagged yeast strain)) (UniProt Q07807)
T4 sequence: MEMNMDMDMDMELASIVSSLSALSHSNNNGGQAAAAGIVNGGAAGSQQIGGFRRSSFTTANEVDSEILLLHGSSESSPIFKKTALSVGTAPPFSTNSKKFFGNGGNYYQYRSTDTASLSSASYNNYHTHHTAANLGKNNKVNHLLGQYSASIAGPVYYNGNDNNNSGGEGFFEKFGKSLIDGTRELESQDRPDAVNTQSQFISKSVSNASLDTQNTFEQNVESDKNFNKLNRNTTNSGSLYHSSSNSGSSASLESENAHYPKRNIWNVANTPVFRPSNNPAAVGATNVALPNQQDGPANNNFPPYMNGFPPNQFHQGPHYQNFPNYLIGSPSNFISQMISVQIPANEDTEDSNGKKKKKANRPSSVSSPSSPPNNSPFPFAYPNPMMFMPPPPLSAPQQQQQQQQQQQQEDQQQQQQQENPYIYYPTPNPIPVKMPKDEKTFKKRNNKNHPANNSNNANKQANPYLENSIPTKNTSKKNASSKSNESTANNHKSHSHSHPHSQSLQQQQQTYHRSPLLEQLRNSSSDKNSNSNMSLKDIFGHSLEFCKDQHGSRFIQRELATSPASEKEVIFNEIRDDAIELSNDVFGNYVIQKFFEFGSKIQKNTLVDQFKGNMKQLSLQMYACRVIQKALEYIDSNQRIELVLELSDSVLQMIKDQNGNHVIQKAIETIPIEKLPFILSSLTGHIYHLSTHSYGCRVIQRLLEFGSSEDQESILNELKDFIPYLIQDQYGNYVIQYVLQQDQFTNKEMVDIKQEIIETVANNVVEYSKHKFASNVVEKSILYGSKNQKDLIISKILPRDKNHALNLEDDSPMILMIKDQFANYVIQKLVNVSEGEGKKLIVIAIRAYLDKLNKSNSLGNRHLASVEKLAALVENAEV

binding [1]: binds weakly
binding [2]: no binding
binding [3]: no binding
binding [4]: binds weakly
B1: Rpb4 (protein, UniProt P20433 1-221)
chain: MNVSTSTFQTRRRRLKKVEEEENAATLQLGQEFQLKQINHQGEEEELIALNLSEARLVIKEALVERRRAFKRSQKKHKKKHLKHENANDETTAVEDEDDDLDEDDVNADDDDFMHSETREKELESIDVLLEQTTGGNNKDLKNTMQYLTNFSRFRDQETVGAVIQLLKSTGLHPFEVAQLGSLACDTADEAKTLIPSLNNKISDDELERILKELSNLETLY
